From PubChem BioAssay AID540256 (National Center for Advancing Translational Sciences (NCATS), 2011)
The campaign covered roughly 300,000 compounds. About 3,700 (1.2%) were called active. This list was built around the results that the source calls inconclusive (neither active nor inactive); the mix of calls is not that of the screen. Calls follow the shape of the full dose curve; tested in HEK293 cells. A potency beside an inconclusive call is a rough fit, not a confirmed value.

Experiment: qHTS for Inhibitors of binding or entry into cells for Lassa Virus; also: nearly all actives have a fitted effect of over 50% in size
Settings: Lassa virus pseudotype entry inhibition, cell reporter; series mostly up to 37.9 µM
Potency is read from the fitted curve at half-maximal effect.

SMILES	Potency
O=C1C2C3C=CC(C3)C2C(=O)N1c1cccc(-c2nc3ccccc3o2)c1 (stereo not drawn)	inactive
CCCCSc1nc2c(cc1C#N)CCC2	inconclusive: 20.6 µM [activator, single point]
COc1ccc(Nc2ncccc2C(=O)O)cc1	inconclusive: 0.0092 µM [activator, full curve, poor fit]
CC(C)(C)c1cc(/C=C(\C#N)C(N)=S)cc(C(C)(C)C)c1O	active: 2.31 µM
Cc1c(C)n2c(SCC(=O)NCc3ccc4c(c3)OCO4)nnc2[nH]c1=O	inconclusive: 0.891 µM [inhibitor, single point]
O=C(CCCN1C(=O)c2cccc3cccc(c23)C1=O)N1CCN(Cc2ccc3c(c2)OCO3)CC1	inconclusive: 29.1 µM [inhibitor, single point]
Cc1ccc(CSC2=Nc3ccccc3C3=NC(=O)CN23)cc1	inconclusive: 25.9 µM [inhibitor, single point]
Cc1cc(C)cc(NC(=S)N(CCN(C)C)C(C)c2cccnc2)c1 (stereo not drawn)	inconclusive: 0.562 µM [inhibitor, full curve, poor fit]
CC(=O)c1cccc(NC(=O)COc2ccccc2)c1	inconclusive: 13 µM [activator, partial curve, poor fit]
CN(C)CCCN(C(=O)c1ccc(S(=O)(=O)N2CCOCC2)cc1)c1nc2ccc(F)cc2s1	inconclusive: 20 µM [inhibitor, partial curve, poor fit]
CCOc1ccc(NC(=O)c2ccc(NC(=O)c3cn4c5c(c(N6CCN(C)CC6)c(F)cc5c3=O)OCC4C)cc2)cc1 (stereo not drawn)	inconclusive: 3.16 µM [activator, single point]
CC(CCc1ccccc1)NC(=S)NC1CCCCC1 (stereo not drawn)	inactive
O=C(CSc1nc2ccc([N+](=O)[O-])cc2s1)NCC1CCCO1 (stereo not drawn)	inactive
NS(=O)(=O)c1ccc2nc(-c3ccccc3)c(-c3ccccc3)nc2c1	inactive
Cc1cc(NC(=O)CCC(=O)N(Cc2ccco2)C(C(=O)NC2CCCC2)c2ccc(F)cc2)no1 (stereo not drawn)	inactive
Clc1ccc(-c2c[n+](Cc3ccc(Br)cc3)c3n2CCCCC3)cc1	inactive
CCOc1ccccc1C(=O)N1CCc2cc(OC)c(OC)cc2C1COc1ccc(OC)cc1 (stereo not drawn)	inactive
C[N+]12CCC(CC1)C(C(O)(c1ccccc1)c1cccs1)C2 (stereo not drawn)	inactive
COCC(=O)n1nc(-c2ccccc2)nc1NCc1ccc(N(C)C)cc1	inconclusive: 14.1 µM [inhibitor, single point]
N#Cc1ccc(NC(=O)CCc2ccc(S(=O)(=O)N3CCOCC3)cc2)cc1	inactive
Cc1cccc(C)c1NC(=O)/C(C#N)=C/c1ccsc1	inactive
O=C(CSc1nc2ncccc2o1)Nc1ccc(Cl)cc1F	inconclusive: 2.82 µM [activator, full curve, poor fit]

SMILES	Potency
CCCNC(=O)Cn1cccc1C(=O)c1ccccc1	inactive
O=[N+]([O-])c1ccc(/C=N/N/C(=N/c2ccccn2)c2ccccn2)cc1	inconclusive: 0.092 µM [activator, full curve, poor fit]
CSc1nc(N(C)NC(=O)c2ccc(Cl)cc2)c2ccccc2n1	inconclusive: 3.98 µM [inhibitor, partial curve, poor fit]
O=C(NC(=S)Nc1nc(-c2ccc(Br)cc2)cs1)c1cccnc1	inconclusive: 4.61 µM [activator, partial curve, poor fit]
Cc1nn(Cc2ccccc2)c2sc(C(=O)N3CCN(Cc4ccc5c(c4)OCO5)CC3)cc12	inconclusive: 17.8 µM [inhibitor, single point]
CCOC(=O)c1nn(-c2ccccc2)c(-c2ccccc2)c1C(=O)c1ccccc1	inconclusive: 10 µM [inhibitor, partial curve, poor fit]
COc1ccc(OCC(=O)Nc2cc(NC(=O)c3ccco3)ccc2OC)cc1	inconclusive: 35.5 µM [inhibitor, single point]
Cc1nn2c(NC(C)C)c3c(nc2c1-c1ccccc1)CCC3	inconclusive: 4.47 µM [inhibitor, partial curve, poor fit]
CC(=O)c1ccc(NC(=O)c2cn(-c3ccccc3)nc2-c2ccncc2)cc1	inconclusive: 2.24 µM [activator, partial curve, poor fit]
CCN(c1ccccc1)S(=O)(=O)c1ccc(OC)c(NC(=O)c2cccs2)c1	inconclusive: 10 µM [inhibitor, partial curve, poor fit]
Oc1[nH]c2ccccc2c1N=Nc1ccccc1F	inactive
CCOC(=O)c1ccc(N2CCN(c3ccccc3F)CC2)c(NC(=O)Nc2cccc(OC)c2)c1	inconclusive: 29.1 µM [inhibitor, single point]
Cc1ccc(C(=O)OCC(=O)c2c[nH]c3ccccc23)cc1	inactive
COc1ccc(NC(=O)c2cc(S(=O)(=O)N3CCCC(C)C3)cn2C)c(OC)c1 (stereo not drawn)	inconclusive: 35.5 µM [inhibitor, single point]
COc1ccc(NC(=O)CSc2nc3ccccc3n2CC(=O)N(C)C2CCCCC2)cc1	inactive
CC(Oc1ccccc1)C(=O)Nc1ccc(S(=O)(=O)Nc2nccs2)cc1 (stereo not drawn)	inconclusive: 8.91 µM [inhibitor, partial curve]
O=C(Nc1ccc2ccccc2n1)c1ccccc1Br	inconclusive: 15.8 µM [inhibitor, single point]
COc1cc(CNCCC2CCOC(C)(C)C2)ccc1O (stereo not drawn)	inconclusive: 0.631 µM [inhibitor, single point]
Cc1ccc(CCNC(=O)CNC(=S)N(Cc2ccccc2)Cc2cccnc2)cc1	inconclusive: 11.2 µM [inhibitor, partial curve, poor fit]
CCC(C)(C)NC(=O)C(c1ccc(OC)cc1)N(C(=O)CCC(=O)Nc1cc(C)on1)C(C)(C)C (stereo not drawn)	inconclusive: 4.47 µM [inhibitor, partial curve, poor fit]
COc1ccccc1-c1cc(C(F)(F)F)nc(S(=O)(=O)CCCC(=O)NCc2ccc(F)cc2)n1	inconclusive: 35.5 µM [inhibitor, single point]

As a working copy, part of the list above:
SMILES	Potency
Oc1[nH]c2ccccc2c1N=Nc1ccccc1F	inactive
CCOC(=O)c1ccc(N2CCN(c3ccccc3F)CC2)c(NC(=O)Nc2cccc(OC)c2)c1	inconclusive: 29.1 µM [inhibitor, single point]
Cc1ccc(C(=O)OCC(=O)c2c[nH]c3ccccc23)cc1	inactive
